Data from the supplement of paper PMC12823440, “Inhibitors supercharge kinase turnover through native proteolytic circuits” (Nature, 2025).
Counter-ions that a name gives are not always drawn. The list shows a part of the results. The calls rarely recur for the same compound in another form.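 Kinases, fused to nanoluciferase, were expressed in K562 cells; luminescence was measured every 4 h from 2 to 18 h as percent of control (DMSO = 100%, positive control = 0%). A time point is decreased if signal falls significantly (2 sigma). Hits were called by the authors by a rule that is not shown; the count of time points alone does not decide it.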

The chains behind the UniProt entries cited, without tags or fusion partners. Where a name states a change or a piece, a line headed by the entry shows the natural chain unless it says otherwise.
UniProt Q05397, whole entry, looked up: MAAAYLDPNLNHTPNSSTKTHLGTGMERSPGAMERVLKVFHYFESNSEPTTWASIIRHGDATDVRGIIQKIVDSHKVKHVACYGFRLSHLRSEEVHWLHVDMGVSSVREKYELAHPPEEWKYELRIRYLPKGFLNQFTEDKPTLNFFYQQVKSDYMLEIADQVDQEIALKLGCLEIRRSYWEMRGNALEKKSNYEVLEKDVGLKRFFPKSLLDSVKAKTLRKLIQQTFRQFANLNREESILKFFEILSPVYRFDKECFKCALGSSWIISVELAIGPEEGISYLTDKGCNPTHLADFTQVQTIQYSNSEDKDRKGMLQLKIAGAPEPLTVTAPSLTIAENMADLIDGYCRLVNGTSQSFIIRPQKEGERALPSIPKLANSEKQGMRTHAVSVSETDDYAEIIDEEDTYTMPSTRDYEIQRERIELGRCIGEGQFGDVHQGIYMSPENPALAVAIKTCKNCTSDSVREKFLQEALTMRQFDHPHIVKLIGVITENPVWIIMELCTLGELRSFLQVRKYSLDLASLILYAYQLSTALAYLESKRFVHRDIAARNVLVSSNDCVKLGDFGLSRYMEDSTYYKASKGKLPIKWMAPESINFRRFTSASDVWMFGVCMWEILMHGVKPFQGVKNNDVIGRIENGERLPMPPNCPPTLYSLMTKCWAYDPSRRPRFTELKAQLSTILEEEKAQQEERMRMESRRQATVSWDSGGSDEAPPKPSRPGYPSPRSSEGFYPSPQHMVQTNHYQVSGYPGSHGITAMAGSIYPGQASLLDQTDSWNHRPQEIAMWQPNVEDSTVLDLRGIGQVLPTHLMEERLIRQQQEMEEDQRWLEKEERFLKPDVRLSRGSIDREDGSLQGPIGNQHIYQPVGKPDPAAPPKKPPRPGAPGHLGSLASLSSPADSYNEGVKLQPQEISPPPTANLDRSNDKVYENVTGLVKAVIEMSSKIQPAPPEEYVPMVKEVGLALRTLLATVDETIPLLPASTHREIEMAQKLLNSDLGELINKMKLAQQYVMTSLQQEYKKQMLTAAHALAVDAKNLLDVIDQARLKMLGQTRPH
UniProt P07949, whole entry, looked up: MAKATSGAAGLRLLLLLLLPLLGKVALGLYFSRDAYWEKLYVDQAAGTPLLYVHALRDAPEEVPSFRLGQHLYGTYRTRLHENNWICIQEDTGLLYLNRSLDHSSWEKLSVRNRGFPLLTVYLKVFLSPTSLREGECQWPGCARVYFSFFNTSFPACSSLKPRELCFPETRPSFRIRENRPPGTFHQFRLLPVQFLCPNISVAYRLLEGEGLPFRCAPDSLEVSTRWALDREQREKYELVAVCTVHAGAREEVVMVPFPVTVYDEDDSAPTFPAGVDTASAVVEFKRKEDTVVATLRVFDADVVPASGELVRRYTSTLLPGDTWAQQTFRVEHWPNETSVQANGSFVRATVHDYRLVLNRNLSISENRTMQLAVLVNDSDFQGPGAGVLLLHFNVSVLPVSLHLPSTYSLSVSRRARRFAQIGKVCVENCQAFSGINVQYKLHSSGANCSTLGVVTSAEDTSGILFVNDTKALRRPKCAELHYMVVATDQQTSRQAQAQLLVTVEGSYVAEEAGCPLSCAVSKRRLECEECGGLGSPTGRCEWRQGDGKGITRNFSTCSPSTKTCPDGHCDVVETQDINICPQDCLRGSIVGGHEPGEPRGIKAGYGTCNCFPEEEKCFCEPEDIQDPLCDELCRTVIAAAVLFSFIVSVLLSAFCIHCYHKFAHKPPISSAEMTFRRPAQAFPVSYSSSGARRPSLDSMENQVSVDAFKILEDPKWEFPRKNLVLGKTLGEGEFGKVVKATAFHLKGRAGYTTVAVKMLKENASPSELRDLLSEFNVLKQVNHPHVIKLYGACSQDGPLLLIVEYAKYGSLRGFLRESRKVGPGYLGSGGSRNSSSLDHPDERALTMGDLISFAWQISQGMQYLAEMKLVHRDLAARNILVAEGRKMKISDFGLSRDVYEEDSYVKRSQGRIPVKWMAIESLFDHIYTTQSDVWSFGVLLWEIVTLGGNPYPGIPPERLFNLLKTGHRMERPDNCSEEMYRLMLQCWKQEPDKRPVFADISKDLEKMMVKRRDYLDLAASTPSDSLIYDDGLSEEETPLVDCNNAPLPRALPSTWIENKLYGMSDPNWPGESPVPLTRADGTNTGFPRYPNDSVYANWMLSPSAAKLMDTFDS
UniProt P07949, whole entry M918T, looked up: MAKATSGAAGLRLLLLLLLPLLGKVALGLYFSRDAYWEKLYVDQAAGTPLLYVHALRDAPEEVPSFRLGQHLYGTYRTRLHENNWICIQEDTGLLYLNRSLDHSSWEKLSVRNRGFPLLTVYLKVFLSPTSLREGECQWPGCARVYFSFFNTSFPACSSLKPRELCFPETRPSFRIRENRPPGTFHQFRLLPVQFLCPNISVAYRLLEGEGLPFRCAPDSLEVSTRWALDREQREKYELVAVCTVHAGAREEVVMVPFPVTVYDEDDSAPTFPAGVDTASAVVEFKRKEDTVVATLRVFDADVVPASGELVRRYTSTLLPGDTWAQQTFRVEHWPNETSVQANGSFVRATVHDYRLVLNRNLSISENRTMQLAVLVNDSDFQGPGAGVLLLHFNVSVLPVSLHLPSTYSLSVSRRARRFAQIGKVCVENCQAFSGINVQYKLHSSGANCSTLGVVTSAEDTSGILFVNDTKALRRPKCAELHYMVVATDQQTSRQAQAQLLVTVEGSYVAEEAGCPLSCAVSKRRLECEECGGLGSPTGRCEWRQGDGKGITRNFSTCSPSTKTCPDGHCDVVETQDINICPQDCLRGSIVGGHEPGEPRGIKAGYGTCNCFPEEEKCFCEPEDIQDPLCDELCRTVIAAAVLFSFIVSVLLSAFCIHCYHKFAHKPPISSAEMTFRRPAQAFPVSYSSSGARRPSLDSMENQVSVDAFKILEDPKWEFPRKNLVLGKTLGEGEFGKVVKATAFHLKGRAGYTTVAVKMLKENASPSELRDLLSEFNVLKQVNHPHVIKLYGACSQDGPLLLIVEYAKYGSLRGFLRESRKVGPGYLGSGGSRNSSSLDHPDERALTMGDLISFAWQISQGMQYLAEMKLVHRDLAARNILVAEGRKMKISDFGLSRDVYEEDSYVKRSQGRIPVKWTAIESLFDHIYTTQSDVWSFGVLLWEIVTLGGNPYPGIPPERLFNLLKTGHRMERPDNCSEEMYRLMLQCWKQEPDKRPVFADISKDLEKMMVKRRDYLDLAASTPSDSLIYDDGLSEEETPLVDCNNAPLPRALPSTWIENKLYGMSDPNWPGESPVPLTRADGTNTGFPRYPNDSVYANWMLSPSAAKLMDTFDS
UniProt Q9BRS2: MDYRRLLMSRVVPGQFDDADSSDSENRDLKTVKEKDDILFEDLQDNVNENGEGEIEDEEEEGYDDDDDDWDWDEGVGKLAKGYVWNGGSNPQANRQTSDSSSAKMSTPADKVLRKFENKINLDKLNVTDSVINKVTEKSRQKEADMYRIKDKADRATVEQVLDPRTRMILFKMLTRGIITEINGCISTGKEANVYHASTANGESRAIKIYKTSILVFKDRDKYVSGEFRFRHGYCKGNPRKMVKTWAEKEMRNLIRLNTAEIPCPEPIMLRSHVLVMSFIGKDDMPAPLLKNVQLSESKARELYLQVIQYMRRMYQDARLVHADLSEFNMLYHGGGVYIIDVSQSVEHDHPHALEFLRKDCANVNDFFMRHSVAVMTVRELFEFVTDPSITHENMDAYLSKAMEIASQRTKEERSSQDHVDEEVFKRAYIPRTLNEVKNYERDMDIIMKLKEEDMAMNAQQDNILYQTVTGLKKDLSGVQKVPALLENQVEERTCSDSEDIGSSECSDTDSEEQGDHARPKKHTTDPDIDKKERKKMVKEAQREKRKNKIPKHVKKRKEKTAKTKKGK
UniProt Q15418, whole entry: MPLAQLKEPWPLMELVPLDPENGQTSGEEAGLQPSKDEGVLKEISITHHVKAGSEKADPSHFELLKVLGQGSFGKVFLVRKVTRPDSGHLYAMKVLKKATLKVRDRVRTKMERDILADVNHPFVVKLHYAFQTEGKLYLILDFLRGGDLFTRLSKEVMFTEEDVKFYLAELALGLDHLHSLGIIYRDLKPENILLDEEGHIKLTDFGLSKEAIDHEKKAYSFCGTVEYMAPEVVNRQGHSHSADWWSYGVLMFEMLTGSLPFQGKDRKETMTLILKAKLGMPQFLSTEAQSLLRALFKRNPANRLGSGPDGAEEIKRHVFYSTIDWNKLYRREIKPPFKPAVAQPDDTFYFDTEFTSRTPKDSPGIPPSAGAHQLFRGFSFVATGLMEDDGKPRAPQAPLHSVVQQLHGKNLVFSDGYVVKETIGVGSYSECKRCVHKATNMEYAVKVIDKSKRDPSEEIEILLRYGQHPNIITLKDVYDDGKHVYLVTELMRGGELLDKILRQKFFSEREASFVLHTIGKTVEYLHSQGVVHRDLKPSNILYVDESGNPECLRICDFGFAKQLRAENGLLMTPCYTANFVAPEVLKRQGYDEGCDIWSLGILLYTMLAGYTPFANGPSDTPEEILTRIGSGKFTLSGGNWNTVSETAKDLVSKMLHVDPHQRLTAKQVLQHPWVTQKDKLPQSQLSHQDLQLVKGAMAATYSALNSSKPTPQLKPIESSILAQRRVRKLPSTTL
UniProt Q9NYA1, whole entry: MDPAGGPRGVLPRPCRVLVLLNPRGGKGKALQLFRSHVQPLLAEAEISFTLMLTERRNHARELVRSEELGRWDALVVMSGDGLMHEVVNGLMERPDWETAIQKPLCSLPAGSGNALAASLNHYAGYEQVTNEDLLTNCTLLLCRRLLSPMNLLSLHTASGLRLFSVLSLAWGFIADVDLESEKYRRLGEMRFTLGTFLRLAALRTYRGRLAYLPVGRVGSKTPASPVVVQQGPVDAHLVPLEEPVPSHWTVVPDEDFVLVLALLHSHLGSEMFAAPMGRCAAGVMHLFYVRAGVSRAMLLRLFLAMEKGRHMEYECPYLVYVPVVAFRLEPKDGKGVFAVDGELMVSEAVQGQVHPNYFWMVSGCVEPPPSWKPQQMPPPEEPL
UniProt Q9Y6E0: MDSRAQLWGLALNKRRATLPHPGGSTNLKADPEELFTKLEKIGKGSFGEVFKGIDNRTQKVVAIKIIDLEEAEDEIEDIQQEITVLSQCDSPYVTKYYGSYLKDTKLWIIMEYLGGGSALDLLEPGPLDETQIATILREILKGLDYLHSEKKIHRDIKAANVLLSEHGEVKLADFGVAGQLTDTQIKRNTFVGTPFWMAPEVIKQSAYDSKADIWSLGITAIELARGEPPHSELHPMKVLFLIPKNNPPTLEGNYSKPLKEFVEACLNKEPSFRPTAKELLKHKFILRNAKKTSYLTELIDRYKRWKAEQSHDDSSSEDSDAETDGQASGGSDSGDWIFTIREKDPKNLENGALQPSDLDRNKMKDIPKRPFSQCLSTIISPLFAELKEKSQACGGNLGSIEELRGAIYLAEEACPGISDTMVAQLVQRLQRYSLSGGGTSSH

Key:
Assay in all cases: kinase-Nluc reporter destabilization hit call (1 = scored as downregulated) (binary); higher = compound decreases kinase abundance
Details in all cases: K562; 2-18 h
PDPK1 = PDPK1 (UniProt O15530)
PIK4CA = PIK4CA (UniProt P42356)
PIK4CB = PIK4CB (UniProt Q9UBF8)
PLK1 = PLK1 (UniProt P53350)
PRKAA1 = PRKAA1 (UniProt Q13131)
PRKCA = PRKCA (UniProt P17252)
PTK2 = PTK2 (UniProt Q05397)
PTK2B = PTK2B (UniProt Q14289)
RAF1 = RAF1 (UniProt P04049)
[1] = target: RAF1_S257L (clone: RAF1_mut) (UniProt P04049)
RET = RET (UniProt P07949)
[2] = target: RET_M918T (clone: RET_mut) (UniProt P07949)
RIOK1 = RIOK1 (UniProt Q9BRS2)
RIPK1 = RIPK1 (UniProt Q13546)
RIPK2 = RIPK2 (UniProt O43353)
ROR2 = ROR2 (UniProt Q01974)
RPS6KA1 = RPS6KA1 (UniProt Q15418)
SPHK1 = SPHK1 (UniProt Q9NYA1)
SRC = SRC (UniProt P12931)
STK24 = STK24 (UniProt Q9Y6E0)

Measured: kinase-Nluc reporter destabilization hit call

CN(C)c1nc2c(Br)c(Br)c(Br)c(Br)c2[nH]1 (10 µM)
inactive: PDPK1 = 0 | PIK4CA 0 | PIK4CB 0 | PLK1 = 0 | PRKAA1 = 0 | PRKCA 0 | PTK2 = 0 | PTK2B 0 | RAF1 = 0 | [1] 0 | RET 0 | [2] 0 | RIOK1 = 0 | RIPK1 = 0 | RIPK2 = 0 | ROR2 = 0 | RPS6KA1 = 0 | SPHK1 = 0 | SRC 0 | STK24 = 0

CCCNC(=O)Nc1ccc(Oc2ncnc3cc(OC)c(OC)cc23)cc1Cl (2.5 µM)
inactive: PDPK1 = 0 | PIK4CA 0 | PIK4CB 0 | PLK1 = 0 | PRKAA1 = 0 | PRKCA 0 | PTK2 = 0 | PTK2B 0 | RAF1 = 0 | [1] 0 | RET 0 | [2] 0 | RIOK1 = 0 | RIPK1 = 0 | RIPK2 = 0 | ROR2 = 0 | RPS6KA1 = 0 | SPHK1 = 0 | SRC 0 | STK24 = 0

CC(C)C[C@@H](C(=O)Nc1ccn(C[C@@H](O)CO)n1)N1CC(Oc2ccccc2Cl)=CC1=O [Dorzagliatin] (10 µM)
inactive: PDPK1 = 0 | PIK4CA 0 | PIK4CB 0 | PLK1 = 0 | PRKAA1 = 0 | PRKCA 0 | PTK2 = 0 | PTK2B 0 | RAF1 = 0 | [1] 0 | RET 0 | [2] 0 | RIOK1 = 0 | RIPK1 = 0 | RIPK2 = 0 | ROR2 = 0 | RPS6KA1 = 0 | SPHK1 = 0 | SRC 0 | STK24 = 0

C=CC(=O)N1C[C@H](COc2nc(Nc3cnn(C)c3)nc3[nH]cc(Cl)c23)[C@@H](OC)C1 (2.5 µM)
inactive: PDPK1 = 0 | PIK4CA 0 | PIK4CB 0 | PLK1 = 0 | PRKAA1 = 0 | PRKCA 0 | PTK2 = 0 | PTK2B 0 | RAF1 = 0 | [1] 0 | RET 0 | [2] 0 | RIOK1 = 0 | RIPK1 = 0 | RIPK2 = 0 | ROR2 = 0 | RPS6KA1 = 0 | SPHK1 = 0 | SRC 0 | STK24 = 0

COc1cc(N2CCOCC2)ccc1Nc1ncc(Cl)c(Nc2ccccc2NS(C)(=O)=O)n1 (2.5 µM)
inactive: PDPK1 = 0 | PIK4CA 0 | PIK4CB 0 | PLK1 = 0 | PRKAA1 = 0 | PRKCA 0 | PTK2 = 0 | PTK2B 0 | RAF1 = 0 | [1] 0 | RET 0 | [2] 0 | RIOK1 = 0 | RIPK1 = 0 | RIPK2 = 0 | ROR2 = 0 | RPS6KA1 = 0 | SPHK1 = 0 | SRC 0 | STK24 = 0

CNc1nc(Nc2cn(C(C)(C)C#N)nc2C)ncc1C(F)(F)F (10 µM)
inactive: PDPK1 = 0 | PIK4CA 0 | PIK4CB 0 | PLK1 = 0 | PRKAA1 = 0 | PRKCA 0 | PTK2 = 0 | PTK2B 0 | RAF1 = 0 | [1] 0 | RET 0 | [2] 0 | RIOK1 = 0 | RIPK1 = 0 | RIPK2 = 0 | ROR2 = 0 | RPS6KA1 = 0 | SPHK1 = 0 | SRC 0 | STK24 = 0

O=C1/C(=C\c2ccc(Cl)cc2)C=C(c2ccccc2)N1c1ccc(O)cc1 (2.5 µM)
inactive: PDPK1 = 0 | PIK4CA 0 | PIK4CB 0 | PLK1 = 0 | PRKAA1 = 0 | PRKCA 0 | PTK2 = 0 | PTK2B 0 | RAF1 = 0 | [1] 0 | RET 0 | [2] 0 | RIOK1 = 0 | RIPK1 = 0 | RIPK2 = 0 | ROR2 = 0 | RPS6KA1 = 0 | SPHK1 = 0 | SRC 0 | STK24 = 0

COc1c(Nc2cc(C)[nH]n2)nc(Sc2ccc(S(=O)(=O)Cc3cccc([N+](=O)[O-])c3F)cc2F)nc1N1CCCCC1 [Centrinone-B] (2.5 µM)
inactive: PDPK1 = 0 | PIK4CA 0 | PIK4CB 0 | PLK1 = 0 | PRKAA1 = 0 | PRKCA 0 | PTK2 = 0 | PTK2B 0 | RAF1 = 0 | [1] 0 | RET 0 | [2] 0 | RIOK1 = 0 | RIPK1 = 0 | RIPK2 = 0 | ROR2 = 0 | RPS6KA1 = 0 | SPHK1 = 0 | SRC 0 | STK24 = 0

CNC(=O)c1ccccc1Oc1nc(Nc2cc(OC)c(OC)c(OC)c2)ncc1Br (2.5 µM)
inactive: PDPK1 = 0 | PIK4CA 0 | PIK4CB 0 | PLK1 = 0 | PRKAA1 = 0 | PRKCA 0 | PTK2 = 0 | PTK2B 0 | RAF1 = 0 | [1] 0 | RET 0 | [2] 0 | RIOK1 = 0 | RIPK1 = 0 | RIPK2 = 0 | ROR2 = 0 | RPS6KA1 = 0 | SPHK1 = 0 | SRC 0 | STK24 = 0

Cn1cc(C2=C(c3cccc(N)c3)C(=O)NC2=O)c2ccccc21 (10 µM)
inactive: PDPK1 = 0 | PIK4CA 0 | PIK4CB 0 | PLK1 = 0 | PRKAA1 = 0 | PRKCA 0 | PTK2 = 0 | PTK2B 0 | RAF1 = 0 | [1] 0 | RET 0 | [2] 0 | RIOK1 = 0 | RIPK1 = 0 | RIPK2 = 0 | ROR2 = 0 | RPS6KA1 = 0 | SPHK1 = 0 | SRC 0 | STK24 = 0

Cc1ccc(NC(=O)c2ccc(CN(CCN(C)C)C(=O)c3cccnc3)cc2)cc1Nc1nccc(-c2cccnc2)n1 [PDGFRα kinase inhibitor 1] (10 µM)
inactive: PDPK1 = 0 | PIK4CA 0 | PIK4CB 0 | PLK1 = 0 | PRKAA1 = 0 | PRKCA 0 | PTK2 = 0 | PTK2B 0 | RAF1 = 0 | [1] 0 | RET 0 | [2] 0 | RIOK1 = 0 | RIPK1 = 0 | RIPK2 = 0 | ROR2 = 0 | RPS6KA1 = 0 | SPHK1 = 0 | SRC 0 | STK24 = 0

Cc1ccn2c(C(=O)C(=O)c3ccccc3)c(-c3ccccc3)nc2c1 (10 µM)
inactive: PDPK1 = 0 | PIK4CA 0 | PIK4CB 0 | PLK1 = 0 | PRKAA1 = 0 | PRKCA 0 | PTK2 = 0 | PTK2B 0 | RAF1 = 0 | [1] 0 | RET 0 | [2] 0 | RIOK1 = 0 | RIPK1 = 0 | RIPK2 = 0 | ROR2 = 0 | RPS6KA1 = 0 | SPHK1 = 0 | SRC 0 | STK24 = 0

CC/C(=N\NC(=O)c1ccnc(NCCCN2CCOCC2)c1)c1ccc(Cl)cc1O (2.5 µM)
inactive: PDPK1 = 0 | PIK4CA 0 | PIK4CB 0 | PLK1 = 0 | PRKAA1 = 0 | PRKCA 0 | PTK2 = 0 | PTK2B 0 | RAF1 = 0 | [1] 0 | RET 0 | [2] 0 | RIOK1 = 0 | RIPK1 = 0 | RIPK2 = 0 | ROR2 = 0 | RPS6KA1 = 0 | SPHK1 = 0 | SRC 0 | STK24 = 0

COc1ccc(S(=O)(=O)NCc2ccc(C(=O)NCCc3ccc(Cl)cn3)cc2)cc1 (10 µM)
inactive: PDPK1 = 0 | PIK4CA 0 | PIK4CB 0 | PLK1 = 0 | PRKAA1 = 0 | PRKCA 0 | PTK2 = 0 | PTK2B 0 | RAF1 = 0 | [1] 0 | RET 0 | [2] 0 | RIOK1 = 0 | RIPK1 = 0 | RIPK2 = 0 | ROR2 = 0 | RPS6KA1 = 0 | SPHK1 = 0 | SRC 0 | STK24 = 0

Cc1cc(C)nc(NS(=O)(=O)c2ccc(NC(=S)NC(=O)COc3ccc(Br)cc3Cl)cc2)n1 (2.5 µM)
inactive: PDPK1 = 0 | PIK4CA 0 | PIK4CB 0 | PLK1 = 0 | PRKAA1 = 0 | PRKCA 0 | PTK2 = 0 | PTK2B 0 | RAF1 = 0 | [1] 0 | RET 0 | [2] 0 | RIOK1 = 0 | RIPK1 = 0 | RIPK2 = 0 | ROR2 = 0 | RPS6KA1 = 0 | SPHK1 = 0 | SRC 0 | STK24 = 0

2 consecutive compounds already listed, quoted:
CC/C(=N\NC(=O)c1ccnc(NCCCN2CCOCC2)c1)c1ccc(Cl)cc1O (2.5 µM)
inactive: PDPK1 = 0 | PIK4CA 0 | PIK4CB 0 | PLK1 = 0 | PRKAA1 = 0 | PRKCA 0 | PTK2 = 0 | PTK2B 0 | RAF1 = 0 | [1] 0 | RET 0 | [2] 0 | RIOK1 = 0 | RIPK1 = 0 | RIPK2 = 0 | ROR2 = 0 | RPS6KA1 = 0 | SPHK1 = 0 | SRC 0 | STK24 = 0

COc1ccc(S(=O)(=O)NCc2ccc(C(=O)NCCc3ccc(Cl)cn3)cc2)cc1 (10 µM)
inactive: PDPK1 = 0 | PIK4CA 0 | PIK4CB 0 | PLK1 = 0 | PRKAA1 = 0 | PRKCA 0 | PTK2 = 0 | PTK2B 0 | RAF1 = 0 | [1] 0 | RET 0 | [2] 0 | RIOK1 = 0 | RIPK1 = 0 | RIPK2 = 0 | ROR2 = 0 | RPS6KA1 = 0 | SPHK1 = 0 | SRC 0 | STK24 = 0

Further records:

CC(C)N1CCN(c2ccc(Nc3ncc4cc5n(c4n3)C3(CCCCC3)CNC5=O)nc2)CC1 [Lerociclib (dihydrochloride)] (2 µM)
inactive: PDPK1 = 0 | PIK4CA 0 | PIK4CB 0 | PLK1 = 0 | PRKAA1 = 0 | PRKCA 0 | PTK2 = 0 | PTK2B 0 | RAF1 = 0 | [1] 0 | RET 0 | [2] 0 | RIOK1 = 0 | RIPK1 = 0 | RIPK2 = 0 | ROR2 = 0 | RPS6KA1 = 0 | SPHK1 = 0 | SRC 0 | STK24 = 0

O=C(NC1CCOCC1)c1ccc(-c2cc(-c3c[nH]nc3-c3ccccn3)ccn2)cc1 (10 µM)
inactive: PDPK1 = 0 | PIK4CA 0 | PIK4CB 0 | PLK1 = 0 | PRKAA1 = 0 | PRKCA 0 | PTK2 = 0 | PTK2B 0 | RAF1 = 0 | [1] 0 | RET 0 | [2] 0 | RIOK1 = 0 | RIPK1 = 0 | RIPK2 = 0 | ROR2 = 0 | RPS6KA1 = 0 | SPHK1 = 0 | SRC 0 | STK24 = 0

CCCCCCCCCCCCCCCCOP(=O)([O-])OCC[N+](C)(C)C [Miltefosine] (10 µM)
inactive: PDPK1 = 0 | PIK4CA 0 | PIK4CB 0 | PLK1 = 0 | PRKAA1 = 0 | PRKCA 0 | PTK2 = 0 | PTK2B 0 | RAF1 = 0 | [1] 0 | RET 0 | [2] 0 | RIOK1 = 0 | RIPK1 = 0 | RIPK2 = 0 | ROR2 = 0 | RPS6KA1 = 0 | SPHK1 = 0 | SRC 0 | STK24 = 0
